The values that follow come from PubChem BioAssay AID434947 (Broad Institute, 2010).

Molecules are shown by their SMILES. Among all 2,200 compounds or so, about 15 (0.7%) were called active.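 How the source made its calls: active means fitted half-maximal concentration for loss of luminescence signal no more than a set limit of log units above the top tested concentration; inconclusive means flat fit with 30 to 70% signal loss, or invalid fit; inactive means half-maximal concentration above that set limit.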 The list shows a part of the results. Bounds are passed on as bounds.

This assay in a line: inhibitors of ADP-Glo detection reagents, dose response, artefact control for GSK3beta inhibitor project, biochemical, luminescence, cell-free, homogeneous (AID 434947).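 Further: kinase-free counter screen of ADP-Glo detection reagents for GSK3beta hits.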 The following applies: 5 uM ADP. (ADP-Glo first removes unused ATP, then detects ADP through luciferase.)
With `O=C(NCCc1nnc2ccc(NCC3CCCO3)nn12)c1ccccc1` (configuration not stated), the EC50 – broadly, the concentration needed to bring the measured effect to its halfway point – was inactive: > 30 µM. As for `N#Cc1c(Nc2ccccc2)sc(C(=O)c2ccccc2)c1N`, the EC50 was inactive: > 30 µM. Consider `CC(C)N1CCc2c(sc(NC(=O)CCS(=O)(=O)c3ccccc3)c2C(N)=O)C1`, for which the EC50 was inactive: > 30 µM. Take `Cc1ccccc1NC(=O)CSc1nc(N)c(C#N)c(-c2cccs2)c1C#N`: the EC50 was inactive: > 30 µM.

On to `Cc1ccc(C2C3=C(CC(C)(C)CC3=O)Nc3onc(C)c32)cc1` (configuration not stated), for which the EC50 was inactive: > 30 µM.

For the compound `COc1ccc(OC)c(C2Nc3ccccc3NC3=C2C(=O)CC(C)(C)C3)c1` (configuration not stated), the EC50 is inactive: > 30 µM.

For `Cc1ccc(CSc2ccc(-c3cccs3)nn2)cc1`, the EC50 was inactive: > 30 µM. The same measure for `CO/N=C/c1ccc(N2CCOCC2)c([N+](=O)[O-])c1`: inactive: > 30 µM; for `COc1ccc(Cl)cc1-c1nc(N)nc(NC2CCCCC2)n1`: inactive: > 30 µM. As to `Nc1nc(NCc2ccco2)nc(NCCO)c1[N+](=O)[O-]`, the EC50 was inactive: > 30 µM. For `CC(C)N1CC(C(=O)Nc2ccc(Br)c(Cl)c2)CC1=O` (configuration not stated), the EC50 is inactive: > 30 µM.

In the case of `O=C(c1ccccc1)c1ccc(NCCCn2ccnc2)c([N+](=O)[O-])c1`, the EC50 was inactive: > 30 µM. The same measure for `Cc1ccc2c(C)c(C(=O)Nc3nnc(C)s3)oc2c1`: inactive: > 30 µM; for `CCc1ccccc1N1C(=O)CC(N2CCc3ccccc32)C1=O` (configuration not stated): inactive: > 30 µM. The figure for `O=C(Nc1ncnc2sc3c(c12)CCCC3)c1ccncc1` is inactive: > 30 µM; for `O=C(N/N=C\c1cccnc1)c1cc(-c2ccccc2)nc2c(Cl)cccc12` it is inactive: > 30 µM; for `Cc1cc(NC(=O)COc2cccnc2[N+](=O)[O-])no1` it is inactive: > 30 µM.

`CCN(CC)Cc1c(C(=O)N/N=C/c2cccnc2)nnn1-c1nonc1N`: the EC50 is inactive: > 30 µM. Regarding `Cc1ccc(-c2nc(Nc3cccc(O)c3)c3ccccc3n2)cc1`, the EC50 was inactive: > 30 µM. For `CCOC(=O)c1nnn(-c2nonc2N)c1-c1ccc(C)cc1`, the EC50 is inactive: > 30 µM. The same measure for `Cc1cc(=O)nc2c3ccccc3n(CC(=O)NCCCN3CCCCC3C)n12` (configuration not stated): inactive: > 30 µM.

In the case of `O=c1oc(-c2cccs2)nc2sc3c(c12)CCC3`, the EC50 is inactive: > 30 µM. For `O=C(NCCCN1CCN(Cc2ccccc2)CC1)C1CCN(S(=O)(=O)N2CCCC2)CC1`, the EC50 is inactive: > 30 µM. Regarding `COC(=O)c1ccc(CSc2nnc(-c3ccncc3)o2)cc1`, the EC50 was inactive: > 30 µM. In the case of `COc1ccc(-c2nn(-c3ccccc3)cc2C=O)cc1[N+](=O)[O-]`, the EC50 was inactive: > 30 µM. Turning to `O=C(O)CCN1C(=O)/C(=C\c2ccc(-c3nc4ccccc4s3)o2)SC1=S`, the EC50 is inactive: > 30 µM. Take `CCN1CCN(CCCNC(=O)c2ccc3c(c2)NC(=O)c2ccccc2S3)CC1`: the EC50 is inactive: > 30 µM. `CCOCCCn1c(=NC(C)=O)c(C#N)cc2c(=O)n3cccc(C)c3nc21`: the EC50 is inactive: > 30 µM. As to `c1ccc(-c2nc(NCCCn3ccnc3)c3ccccc3n2)cc1`, the EC50 was inactive: > 30 µM. The same measure for `O=C(NCC(c1ccco1)N1CCc2ccccc2C1)c1ccccc1Cl` (configuration not stated): inactive: > 30 µM; for `Clc1ccc2c(c1)Nc1ccccc1CC2`: inactive: > 30 µM; for `O=C(Nc1ccc(O)c2c(=O)cc(-c3ccccc3Cl)oc12)c1ccc(Cl)c(Cl)c1`: inactive: > 30 µM.

As to `CCSc1ncnc2c(C#N)c3n(c12)CCCCC3`, the EC50 is inactive: > 30 µM. Regarding `Cc1ccc(Nc2nc(-c3ccncc3)nc3ccccc23)cc1`, the EC50 is inactive: > 30 µM. `Nc1nonc1-n1nnc(C(=O)N/N=C/c2ccccc2F)c1-c1cccs1`: the EC50 was inactive: > 30 µM. Consider `O=C(NCC(c1ccco1)N1CCN(c2ccc(F)cc2)CC1)c1ccc2c(c1)OCO2` (configuration not stated), for which the EC50 is inactive: > 30 µM.

As for `c1ccc2c(c1)oc1c(NCCCn3ccnc3)ncnc12`, the EC50 was inactive: > 30 µM.
